Measurements published in PubChem BioAssay AID445 (National Center for Advancing Translational Sciences (NCATS), 2006).
This is one part of the list. Further columns of the screen follow, without active or inactive calls. The list favours compounds with an active or inconclusive main result. Potencies come from curve fits of mixed quality, noted in brackets.

Assay: IkB Signaling
Details: ABC-DLBCL IkBa-CBG/CBR dual luciferase ratio (green luciferase fused to IkBa over red control in OCI-Ly3 lymphoma cells), 4 h; measured here: control luc red channel unless noted
Method in brief: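 In this assay, an IκBα–CBG68 fusion accumulates when IKK-driven degradation is blocked; native CBR normalizes for cell number. OCI-Ly3 cells were treated 4 h with compound and doxycycline, then green and red light read after Chroma-Glo addition.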

Row | Structure (SMILES) | AC50
1 | CCN(CC)S(=O)(=O)c1ccc(C(=O)Nc2nc3ccc(Cl)cc3s2)cc1 | 0.794 µM [falling, full curve]
2 | CC1=CCC(Cc2nc3ccccc3o2)C1(C)C (stereo not drawn) | 5.01 µM [falling, partial curve]
3 | O=C1CCc2cc(S(=O)(=O)NCc3ccccc3Cl)cc3c2N1CC3 | 31.6 µM [falling, partial curve, poor fit]
4 | CN(C)c1cccc(C(=O)Nc2cccc(F)c2)c1 | 20 µM [falling, partial curve]
5 | c1cncc(-c2nc(-c3ccco3)cs2)c1 | 39.8 µM [falling, single point]
6 | COc1cc(C(=O)N2CCN(c3ncnc4sc(C)c(C)c34)CC2)cc(OC)c1OC | 12.6 µM [falling, partial curve]
7 | O=C(CCn1ccc2cc(S(=O)(=O)N3CCCC3)ccc21)NCc1ccccc1F | 12.6 µM [falling, single point]
8 | CCn1nc(C)c2c(-c3ccccc3)cc(=O)n(C(C)C(=O)NCc3ccccc3OC)c21 (stereo not drawn) | 39.8 µM [falling, single point]
9 | COc1cccc(NC(=O)c2oc3ccccc3c2NC(=O)C2CCCCC2)c1 | 25.1 µM [falling, single point]
10 | COc1ccc(C(=O)/C=C/c2cn(CC(O)CN3CCc4ccccc43)c3ccccc23)cc1 (stereo not drawn) | 6.31 µM [falling, partial curve]
11 | CCCC(C(=O)NC1CCCC1)N(Cc1cccs1)C(=O)c1snc(C(N)=O)c1N (stereo not drawn) | 25.1 µM [falling, partial curve] [measured here: IkB-luc green channel]
12 | CCc1ccccc1NC(=O)CSc1nc2n[nH]c(C)c2c(=N)n1-c1ccc(OC)cc1 | 25.1 µM [falling, partial curve]
13 | CC(C)CC(=O)Nc1nnc(S(=O)(=O)N(CC(C)C)c2ccccc2)s1 | 0.0501 µM [rising, full curve]
14 | Cc1ccc(CNC(=O)CCC(=O)N2CC3CCCN3c3ccccc32)cc1 (stereo not drawn) | 12.6 µM [falling, partial curve]
15 | CN(C)c1cccc(C(=O)NC2CCCCCC2)c1 | 12.6 µM [falling, partial curve]
16 | Cc1cc(C)c(S(=O)(=O)NCCc2cc3ccc(C)c(C)c3[nH]c2=O)c(C)c1 | 31.6 µM [falling, partial curve]
17 | O=c1c2sc3ccccc3c2n(Cc2cccc(Cl)c2)c(=O)n1Cc1ccco1 | 7.94 µM [falling, full curve, poor fit]
18 | Cc1ccccc1OCCn1c(=N)n(C(C)C)c2ccccc21 | 31.6 µM [falling, single point]
19 | Fc1ccc(-n2ncc3c(NC4CCCCCC4)ncnc32)cc1 | 3.98 µM [falling, partial curve]
20 | Cc1cc(C)nc(NS(=O)(=O)c2ccc(NC(=O)c3ccc4c(c3)OCO4)cc2)n1 | 3.16 µM [falling, partial curve]
21 | O=C(CCc1ccccc1)NCc1nc2cccnc2n1Cc1ccc(F)cc1 | 39.8 µM [falling, single point]

Row | Structure (SMILES) | AC50
22 | CCOC(=O)N1CCc2c(sc3c2c(=O)n(-c2ccccc2)c(=O)n3CC(=O)Nc2ccc(OC)cc2OC)C1 | 0.158 µM [falling, full curve, poor fit]
23 | CCOc1ccc(OCC)c(NC(=O)c2cc(S(=O)(=O)N3CCCC3)cn2C)c1 | 6.31 µM [rising, single point]
24 | c1ccc(COc2ccc(OCCOCCn3cncn3)cc2)cc1 | 12.6 µM [falling, single point]
25 | CCc1ccccc1N1CC(c2nc3ccccc3n2CCCOc2ccc(Cl)cc2)CC1=O (stereo not drawn) | 7.94 µM [falling, partial curve]
26 | COc1ccc(CCNC(=O)CCc2c(C)nc3c(c(C)nn3-c3ccc(C)c(C)c3)c2C)cc1OC | 12.6 µM [falling, single point]
27 | Cc1cc(C(=O)COc2ccc(-c3nnco3)cc2)c(C)n1Cc1ccccc1 | 20 µM [falling, partial curve]
28 | COc1ccccc1OCCSc1nc(-c2ccc(C(C)(C)C)cc2)nc2cc(=O)[nH]n12 | 39.8 µM [falling, single point]
29 | COCCNC(=O)C(C#N)c1nc2ccccc2nc1N1CCCCCC1 (stereo not drawn) | 7.94 µM [falling, partial curve]
30 | Cc1ccc2c(c1)nnn2C1CCN(S(=O)(=O)c2ccc(C(=O)N3CC(C)CC(C)C3)cc2)CC1 (stereo not drawn) | 12.6 µM [falling, partial curve]
31 | Nc1nnc(SCC(=O)Nc2ccc(Cl)cc2)s1 | 0.794 µM [rising, single point]
32 | Cc1cc(Cl)ccc1NC(=O)c1cccc(NC(=O)N2CCSc3ncccc32)c1 | 12.6 µM [falling, partial curve]
33 | O=C(CSC1=Nc2ccccc2C2=NC(CCC(=O)NC3CCCCC3)C(=O)N12)Nc1cccc(C(F)(F)F)c1 (stereo not drawn) | 12.6 µM [falling, partial curve]
34 | CCn1c(COc2ccccc2)nnc1SCC(=O)CC(=O)Nc1ccccc1OC | 12.6 µM [falling, partial curve]
35 | CCOC(=O)CCc1c(C)nc2cc(-c3cc(OC)cc(OC)c3)[nH]n2c1=O | 3.16 µM [falling, partial curve]
36 | O=C(O)C1CCN(C(=O)COc2ccc3c4c(c(=O)oc3c2)CCC4)CC1 | 12.6 µM [falling, partial curve]
37 | COc1cc(NC(=O)c2cc(-c3cccc(OC)c3)n[nH]2)cc(OC)c1 | 0.398 µM [falling, partial curve]
38 | Cc1nc2ccc(S(=O)(=O)N(CC(=O)Nc3ccc(F)cc3)Cc3ccccc3)cc2s1 | 12.6 µM [falling, partial curve]
39 | c1ccc(-c2nc(-c3ccco3)cs2)nc1 | 2.51 µM [rising, partial curve]
40 | CC1CCc2c(sc(NC(=O)CCCOc3ccccc3)c2C(N)=O)C1 (stereo not drawn) | 20 µM [falling, partial curve]
41 | COC(=O)CCn1nnc(-c2ccc(C(C)C)cc2)n1 | 0.794 µM [falling, full curve]
42 | Cc1cc(NC(=O)CCCC(=O)N(CC(=O)NC2CCCCC2)c2ccccc2)no1 | 25.1 µM [falling, partial curve]

A draw from above in order of length of the SMILES, ascending:
Row | Structure (SMILES) | AC50
39 | c1ccc(-c2nc(-c3ccco3)cs2)nc1 | 2.51 µM [rising, partial curve]
2 | CC1=CCC(Cc2nc3ccccc3o2)C1(C)C (stereo not drawn) | 5.01 µM [falling, partial curve]
15 | CN(C)c1cccc(C(=O)NC2CCCCCC2)c1 | 12.6 µM [falling, partial curve]
41 | COC(=O)CCn1nnc(-c2ccc(C(C)C)cc2)n1 | 0.794 µM [falling, full curve]
24 | c1ccc(COc2ccc(OCCOCCn3cncn3)cc2)cc1 | 12.6 µM [falling, single point]
18 | Cc1ccccc1OCCn1c(=N)n(C(C)C)c2ccccc21 | 31.6 µM [falling, single point]
19 | Fc1ccc(-n2ncc3c(NC4CCCCCC4)ncnc32)cc1 | 3.98 µM [falling, partial curve]
29 | COCCNC(=O)C(C#N)c1nc2ccccc2nc1N1CCCCCC1 (stereo not drawn) | 7.94 µM [falling, partial curve]
21 | O=C(CCc1ccccc1)NCc1nc2cccnc2n1Cc1ccc(F)cc1 | 39.8 µM [falling, single point]
3 | O=C1CCc2cc(S(=O)(=O)NCc3ccccc3Cl)cc3c2N1CC3 | 31.6 µM [falling, partial curve, poor fit]
14 | Cc1ccc(CNC(=O)CCC(=O)N2CC3CCCN3c3ccccc32)cc1 (stereo not drawn) | 12.6 µM [falling, partial curve]
37 | COc1cc(NC(=O)c2cc(-c3cccc(OC)c3)n[nH]2)cc(OC)c1 | 0.398 µM [falling, partial curve]
7 | O=C(CCn1ccc2cc(S(=O)(=O)N3CCCC3)ccc21)NCc1ccccc1F | 12.6 µM [falling, single point]
25 | CCc1ccccc1N1CC(c2nc3ccccc3n2CCCOc2ccc(Cl)cc2)CC1=O (stereo not drawn) | 7.94 µM [falling, partial curve]
12 | CCc1ccccc1NC(=O)CSc1nc2n[nH]c(C)c2c(=N)n1-c1ccc(OC)cc1 | 25.1 µM [falling, partial curve]
20 | Cc1cc(C)nc(NS(=O)(=O)c2ccc(NC(=O)c3ccc4c(c3)OCO4)cc2)n1 | 3.16 µM [falling, partial curve]
10 | COc1ccc(C(=O)/C=C/c2cn(CC(O)CN3CCc4ccccc43)c3ccccc23)cc1 (stereo not drawn) | 6.31 µM [falling, partial curve]
26 | COc1ccc(CCNC(=O)CCc2c(C)nc3c(c(C)nn3-c3ccc(C)c(C)c3)c2C)cc1OC | 12.6 µM [falling, single point]
33 | O=C(CSC1=Nc2ccccc2C2=NC(CCC(=O)NC3CCCCC3)C(=O)N12)Nc1cccc(C(F)(F)F)c1 (stereo not drawn) | 12.6 µM [falling, partial curve]

Continued.

Row | Structure (SMILES) | AC50
43 | CCOC(=O)c1cnc2c(Cl)cc(Cl)cc2c1Nc1ccccc1OC | 20 µM [falling, partial curve]
44 | COc1ccc(-c2cn3c(C)c(C(=O)Nc4cc(C)cc(C)c4)sc3n2)cc1 | 6.31 µM [falling, full curve]
45 | COC(=O)c1ccc(Cn2nnc3c(=O)[nH]c(C4CCCN(S(=O)(=O)c5ccccc5Cl)C4)nc32)cc1 (stereo not drawn) | 39.8 µM [falling, single point]
46 | CCCSc1ncc(Cl)c(C(=O)N(Cc2ccc(Cl)cc2)Cc2ccco2)n1 | 12.6 µM [falling, partial curve]
47 | CCCOC(=O)c1ccc(Oc2cn[nH]c2-c2ccc(OC)cc2O)cc1 | 25.1 µM [falling, partial curve]
48 | Cc1ccccc1OCC(=O)N1CCC(c2nc3ccccc3s2)CC1 | 3.16 µM [rising, single point]
49 | Cc1ccc(NC(=O)Cn2nc(N3CCN(c4ccccc4)CC3)ccc2=O)cc1F | 25.1 µM [falling, partial curve]
50 | CCC1CCCCN1S(=O)(=O)c1cc2c3c(c1)CC(=O)N3CCC2 (stereo not drawn) | 5.01 µM [falling, single point]
51 | COc1ccc(S(=O)(=O)N2Cc3ccccc3CC2C(=O)Nc2ccc(C)cc2C)cc1OC (stereo not drawn) | 20 µM [falling, partial curve]
52 | COc1ccc(CNC(=O)c2cc3c(C)nc4ccccc4c3o2)c(OC)c1 | 39.8 µM [rising, single point] [measured here: IkB-luc green channel]
53 | CCOC(=O)c1c(C)oc2ncnc(Nc3cc(C)cc(C)c3)c12 | 3.98 µM [rising, single point]
54 | CCC1=C(c2ccc(C)cc2)S(=O)(=O)N=C1N1CCC(C(=O)NCc2ccc(N(C)C)cc2)CC1 | 15.8 µM [falling, partial curve]
55 | COc1ccc(CNC(=O)c2cnn3c(C)c(Cc4c(F)cccc4Cl)c(C)nc23)cc1 | 39.8 µM [falling, single point]
56 | Cc1cccc(N2CCN(C(=O)c3cnc(N4CCCC4)nc3C)CC2)c1C | 31.6 µM [falling, single point]
57 | CCCCOc1ccc(C(=O)NCc2nnnn2-c2ccc(C)c(C)c2)cc1 | 25.1 µM [falling, partial curve]
58 | COc1ccccc1NC(=O)CC1C(=O)NCCN1C(=O)Nc1ccc(Cl)c(Cl)c1 (stereo not drawn) | 31.6 µM [falling, single point]
59 | COC(=O)c1c(NC(=O)/C(C#N)=C/c2ccccc2)sc2c1C(C(=O)OC)CC2 (stereo not drawn) | 0.398 µM [falling, partial curve]
60 | CCOc1ccccc1CNC(=O)c1oc2c(c1C)-c1nn(Cc3cccc(Cl)c3)cc1CC2 | 20 µM [falling, partial curve]
61 | Cc1cccc(C(=O)NCc2nc3ccccc3n2Cc2ccccc2Cl)c1 | 25.1 µM [falling, partial curve]
62 | COc1cccc(OCc2nnc(SCC(=O)NCc3ccco3)n2CCc2ccccc2)c1 | 12.6 µM [falling, partial curve]
63 | Cc1ccc(NC(=O)C2CCCN2S(=O)(=O)c2cccc3cccnc23)c(C)c1 (stereo not drawn) | 2 µM [rising, partial curve]
